Results published in publication PMC9279153, “Structure of the Dicer-2–R2D2 heterodimer bound to a small RNA duplex”.
The exact form of at least one protein or probe is not confirmed.

Experiments:
Assay in all cases: photocrosslinking
Dicer-2 + R2D2 K98A = settings: p* crosslinking not affected by K98A; 5-iodouracil at position 20 of strand 1 (written as U); Crosslinking: 20 nM siRNA, 40 nM Dicer-2-R2D2, 30 min, >300 nm UV 60 s, buffer not given; recombinant protein; protein details: 8xHis (structure prep),3xFlag
Dicer-2 + R2D2 W205A = settings: p* crosslink to Dicer-2 retained; 5-iodouracil at position 20 of strand 1 (written as U); Crosslinking: 20 nM siRNA, 40 nM Dicer-2-R2D2, 30 min, >300 nm UV 60 s, buffer not given; recombinant protein; protein details: 8xHis (structure prep),3xFlag
Dicer-2 + R2D2 = settings: p* crosslinks to Dicer-2; 5-iodouracil at position 20 of strand 1 (written as U); Crosslinking: 20 nM siRNA, 40 nM Dicer-2-R2D2, 30 min, >300 nm UV 60 s, buffer not given; recombinant protein; protein details: 8xHis (structure prep),3xFlag

Measured: binding result

UGAGGUAGUAGGUUGUAUAUU / AAUACAACCUACUACCUCAUU [p* siRNA (siRNA-1/siRNA-3)]
binds: all assays above
